Patent publication US20180236024A1
Numbering of substitutions follows the chain as printed. Names and notes keep the numbering of the source. No constants are given. Whether binding was seen depends on the method and setting. Binding seen in cells or lysates may run through a third protein. Some results given as binding are weak or reduced against the parent protein; the word gives no strength. For some assays here: Sequences can lack the tags named with a protein. Blank lines part the entries; values can stand above or below the binder they belong to.

Chains of the proteins cited; added tags and fusions are not shown. Lines headed by an entry give the natural chain unless they say otherwise; changes in a name come on top. Residues count along the entry.
UniProt Q9C0C7: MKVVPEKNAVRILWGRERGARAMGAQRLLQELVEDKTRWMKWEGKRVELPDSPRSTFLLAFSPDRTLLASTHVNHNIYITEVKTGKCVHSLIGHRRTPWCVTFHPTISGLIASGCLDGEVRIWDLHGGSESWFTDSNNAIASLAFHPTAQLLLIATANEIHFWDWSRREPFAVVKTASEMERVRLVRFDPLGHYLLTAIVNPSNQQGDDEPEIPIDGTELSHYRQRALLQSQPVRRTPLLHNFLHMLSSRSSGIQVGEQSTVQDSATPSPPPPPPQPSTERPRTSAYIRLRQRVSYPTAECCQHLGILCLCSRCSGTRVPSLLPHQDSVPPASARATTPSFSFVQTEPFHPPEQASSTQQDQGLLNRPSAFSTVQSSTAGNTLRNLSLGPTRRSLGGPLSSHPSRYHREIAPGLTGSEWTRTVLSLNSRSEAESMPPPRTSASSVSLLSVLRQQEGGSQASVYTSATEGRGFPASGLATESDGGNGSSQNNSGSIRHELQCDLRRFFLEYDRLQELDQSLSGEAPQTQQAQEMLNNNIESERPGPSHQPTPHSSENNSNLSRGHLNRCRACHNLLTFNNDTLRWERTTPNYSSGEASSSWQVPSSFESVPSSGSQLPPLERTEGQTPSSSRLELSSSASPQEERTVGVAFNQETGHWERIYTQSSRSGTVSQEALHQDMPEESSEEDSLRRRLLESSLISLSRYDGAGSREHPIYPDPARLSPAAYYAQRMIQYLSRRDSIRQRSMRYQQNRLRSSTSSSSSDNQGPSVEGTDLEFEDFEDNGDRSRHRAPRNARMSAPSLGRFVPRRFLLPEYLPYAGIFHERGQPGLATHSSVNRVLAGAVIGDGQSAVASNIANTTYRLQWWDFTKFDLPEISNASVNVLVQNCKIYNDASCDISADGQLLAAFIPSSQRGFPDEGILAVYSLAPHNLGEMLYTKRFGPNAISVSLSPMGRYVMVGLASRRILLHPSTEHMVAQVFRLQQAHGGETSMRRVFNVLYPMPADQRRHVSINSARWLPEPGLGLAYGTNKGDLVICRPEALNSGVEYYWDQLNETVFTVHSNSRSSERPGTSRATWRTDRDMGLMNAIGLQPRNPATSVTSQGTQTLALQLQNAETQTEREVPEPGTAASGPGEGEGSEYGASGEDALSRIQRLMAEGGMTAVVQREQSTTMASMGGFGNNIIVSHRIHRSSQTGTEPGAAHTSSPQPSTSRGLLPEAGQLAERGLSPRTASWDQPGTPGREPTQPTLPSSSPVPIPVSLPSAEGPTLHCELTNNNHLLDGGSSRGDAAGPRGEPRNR
UniProt Q14457: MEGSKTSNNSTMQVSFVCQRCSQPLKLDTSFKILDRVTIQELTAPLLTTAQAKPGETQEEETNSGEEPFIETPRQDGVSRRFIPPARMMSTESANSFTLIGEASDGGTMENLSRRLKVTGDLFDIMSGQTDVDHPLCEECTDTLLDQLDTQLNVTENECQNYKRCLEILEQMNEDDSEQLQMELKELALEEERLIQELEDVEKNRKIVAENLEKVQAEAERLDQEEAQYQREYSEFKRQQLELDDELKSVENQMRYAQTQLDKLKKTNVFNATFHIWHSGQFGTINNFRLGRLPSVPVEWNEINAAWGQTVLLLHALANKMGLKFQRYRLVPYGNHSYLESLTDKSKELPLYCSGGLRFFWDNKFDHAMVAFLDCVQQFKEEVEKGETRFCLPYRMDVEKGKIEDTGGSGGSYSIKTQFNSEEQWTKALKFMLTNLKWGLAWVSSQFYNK
Beclin 1 segment encompassing CCD and ECD: residues 144-450 of Q14457
UniProt Q9HC29: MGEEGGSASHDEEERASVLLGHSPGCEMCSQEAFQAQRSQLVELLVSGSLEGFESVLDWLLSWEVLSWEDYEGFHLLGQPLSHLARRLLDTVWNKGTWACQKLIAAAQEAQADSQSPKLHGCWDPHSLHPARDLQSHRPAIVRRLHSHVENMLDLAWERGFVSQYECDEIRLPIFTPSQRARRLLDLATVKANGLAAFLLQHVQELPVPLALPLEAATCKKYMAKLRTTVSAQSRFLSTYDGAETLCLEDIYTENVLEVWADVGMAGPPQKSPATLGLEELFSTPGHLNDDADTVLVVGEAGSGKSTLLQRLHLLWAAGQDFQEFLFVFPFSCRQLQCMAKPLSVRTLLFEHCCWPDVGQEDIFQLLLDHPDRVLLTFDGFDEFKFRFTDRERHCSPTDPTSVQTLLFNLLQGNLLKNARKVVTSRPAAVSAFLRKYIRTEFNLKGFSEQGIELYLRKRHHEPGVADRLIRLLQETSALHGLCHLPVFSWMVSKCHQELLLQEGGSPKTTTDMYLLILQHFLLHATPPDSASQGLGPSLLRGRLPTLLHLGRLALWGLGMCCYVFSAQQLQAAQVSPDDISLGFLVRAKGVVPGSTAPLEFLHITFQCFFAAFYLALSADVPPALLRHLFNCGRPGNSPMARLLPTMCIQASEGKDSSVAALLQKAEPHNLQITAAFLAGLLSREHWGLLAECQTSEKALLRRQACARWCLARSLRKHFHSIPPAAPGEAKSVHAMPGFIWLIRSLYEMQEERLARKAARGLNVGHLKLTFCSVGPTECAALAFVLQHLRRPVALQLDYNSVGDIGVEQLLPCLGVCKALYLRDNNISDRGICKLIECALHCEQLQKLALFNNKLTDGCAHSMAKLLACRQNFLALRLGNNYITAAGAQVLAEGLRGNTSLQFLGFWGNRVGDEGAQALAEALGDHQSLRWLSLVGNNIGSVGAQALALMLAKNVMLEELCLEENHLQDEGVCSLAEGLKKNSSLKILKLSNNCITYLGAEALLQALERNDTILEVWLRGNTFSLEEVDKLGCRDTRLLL
UniProt Q96P20: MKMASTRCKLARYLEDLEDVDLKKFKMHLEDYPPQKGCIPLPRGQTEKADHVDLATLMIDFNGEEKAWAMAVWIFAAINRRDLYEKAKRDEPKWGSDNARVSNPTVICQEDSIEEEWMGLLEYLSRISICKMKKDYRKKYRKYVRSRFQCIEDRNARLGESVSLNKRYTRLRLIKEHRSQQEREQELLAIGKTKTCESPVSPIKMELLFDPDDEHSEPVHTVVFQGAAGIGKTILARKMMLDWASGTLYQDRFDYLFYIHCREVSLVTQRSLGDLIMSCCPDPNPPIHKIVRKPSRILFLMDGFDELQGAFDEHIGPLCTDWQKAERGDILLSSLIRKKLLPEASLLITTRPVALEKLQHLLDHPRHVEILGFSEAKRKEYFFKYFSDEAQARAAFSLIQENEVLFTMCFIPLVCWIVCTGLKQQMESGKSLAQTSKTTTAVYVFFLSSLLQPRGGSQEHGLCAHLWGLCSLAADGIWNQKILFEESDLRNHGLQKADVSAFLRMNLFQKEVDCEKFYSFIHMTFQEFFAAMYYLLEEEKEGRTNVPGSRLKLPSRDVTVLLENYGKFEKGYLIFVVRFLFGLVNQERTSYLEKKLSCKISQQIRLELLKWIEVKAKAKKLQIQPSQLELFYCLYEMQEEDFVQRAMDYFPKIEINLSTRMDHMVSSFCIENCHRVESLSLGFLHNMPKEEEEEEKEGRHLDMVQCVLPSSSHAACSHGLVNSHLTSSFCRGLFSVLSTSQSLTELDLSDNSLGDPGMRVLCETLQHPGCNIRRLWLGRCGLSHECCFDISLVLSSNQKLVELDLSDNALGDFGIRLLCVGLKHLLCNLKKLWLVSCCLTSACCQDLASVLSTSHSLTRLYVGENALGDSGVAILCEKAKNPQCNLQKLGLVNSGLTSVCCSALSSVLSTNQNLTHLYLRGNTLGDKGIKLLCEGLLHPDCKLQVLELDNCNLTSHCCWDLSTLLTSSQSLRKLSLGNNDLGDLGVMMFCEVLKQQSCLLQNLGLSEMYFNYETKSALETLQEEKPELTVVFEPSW
UniProt Q676U5: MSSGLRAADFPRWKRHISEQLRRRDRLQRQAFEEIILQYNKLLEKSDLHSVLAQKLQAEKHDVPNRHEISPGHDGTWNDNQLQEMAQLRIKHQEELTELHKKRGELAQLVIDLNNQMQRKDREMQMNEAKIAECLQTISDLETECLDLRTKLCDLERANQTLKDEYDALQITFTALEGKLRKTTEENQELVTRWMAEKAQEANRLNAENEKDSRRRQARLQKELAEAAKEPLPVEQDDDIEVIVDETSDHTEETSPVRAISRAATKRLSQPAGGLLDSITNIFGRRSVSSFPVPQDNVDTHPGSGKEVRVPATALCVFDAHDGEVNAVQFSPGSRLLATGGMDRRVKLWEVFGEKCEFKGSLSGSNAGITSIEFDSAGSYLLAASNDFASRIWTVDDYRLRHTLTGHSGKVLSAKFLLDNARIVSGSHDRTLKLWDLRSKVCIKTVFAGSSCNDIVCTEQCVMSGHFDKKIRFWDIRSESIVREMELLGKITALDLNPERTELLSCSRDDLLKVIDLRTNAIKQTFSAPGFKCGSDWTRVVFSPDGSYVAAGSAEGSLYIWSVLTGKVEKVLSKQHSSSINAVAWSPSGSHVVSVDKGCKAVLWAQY

Experiments:
p-ULK1 (Ser-317) [1] = biological target: T1, p-ULK1 (Ser-317) (UniProt O75385); assay: co-immunoprecipitation, HEK293 cells
T1 sequence (phosphoserine at 317, looked up): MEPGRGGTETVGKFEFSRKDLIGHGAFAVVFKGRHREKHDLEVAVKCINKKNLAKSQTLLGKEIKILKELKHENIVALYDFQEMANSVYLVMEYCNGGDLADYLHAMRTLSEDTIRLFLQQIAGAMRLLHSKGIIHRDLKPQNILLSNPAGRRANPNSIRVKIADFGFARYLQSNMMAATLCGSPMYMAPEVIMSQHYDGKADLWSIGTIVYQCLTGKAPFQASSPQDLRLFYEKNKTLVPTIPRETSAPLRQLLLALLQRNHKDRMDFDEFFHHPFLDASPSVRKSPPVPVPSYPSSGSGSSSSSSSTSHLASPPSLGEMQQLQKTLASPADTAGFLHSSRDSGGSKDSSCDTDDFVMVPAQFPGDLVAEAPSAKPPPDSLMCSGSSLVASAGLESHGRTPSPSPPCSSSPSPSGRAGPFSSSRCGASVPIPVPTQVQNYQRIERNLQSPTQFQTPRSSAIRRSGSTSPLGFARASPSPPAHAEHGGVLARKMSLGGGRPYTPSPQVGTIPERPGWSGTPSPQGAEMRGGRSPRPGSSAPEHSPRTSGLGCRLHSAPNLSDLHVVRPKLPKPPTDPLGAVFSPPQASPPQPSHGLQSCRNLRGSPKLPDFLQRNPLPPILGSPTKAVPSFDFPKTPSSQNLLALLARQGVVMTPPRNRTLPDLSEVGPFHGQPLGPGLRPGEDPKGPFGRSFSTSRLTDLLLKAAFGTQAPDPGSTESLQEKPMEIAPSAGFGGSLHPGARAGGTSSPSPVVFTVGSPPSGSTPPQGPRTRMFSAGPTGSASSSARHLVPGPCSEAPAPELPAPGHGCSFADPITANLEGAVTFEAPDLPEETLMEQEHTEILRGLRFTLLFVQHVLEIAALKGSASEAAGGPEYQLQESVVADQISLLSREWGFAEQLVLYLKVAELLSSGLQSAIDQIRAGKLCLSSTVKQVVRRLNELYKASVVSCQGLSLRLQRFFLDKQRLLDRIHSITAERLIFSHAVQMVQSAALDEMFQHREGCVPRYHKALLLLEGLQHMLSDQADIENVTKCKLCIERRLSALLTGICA

ULK1 [2] = biological target: T2, ULK1 (UniProt O75385); assay: co-IP of GFP-TRIM20 with endogenous ULK1 (figure legend)
T2 sequence (looked up): T1 sequence (phosphoserine at 317, looked up)

p-ULK1 (Ser-317) [3] = biological target: T1, p-ULK1 (Ser-317); assay: co-IP with anti-GFP, HEK293 cells
p-ULK1 (Ser-555) = biological target: T3, p-ULK1 (Ser-555) (UniProt O75385); assay: co-IP with anti-GFP, HEK293 cells
T3 sequence (phosphoserine at 555, looked up): T1 sequence (phosphoserine at 317, looked up)

ULK1 [4] = biological target: T2, ULK1; assay: co-IP with anti-GFP, HEK293 cells
ULK1 [5] = biological target: T2, ULK1; assay: co-IP and GST pull-down (figure legend)
ULK1 [6] = biological target: T2, ULK1; assay: co-immunoprecipitation, HEK293 cell extracts
ULK1 [7] = biological target: T2, ULK1; assay: co-IP with anti-GFP, Myc-ULK1, HEK293 cells
AMBRA1 [8] = biological target: AMBRA1 (UniProt Q9C0C7); assay: co-IP of endogenous proteins, THP-1
AMBRA1 [9] = biological target: AMBRA1 (UniProt Q9C0C7); assay: co-immunoprecipitation, HEK293T lysates
[10] = biological target: Beclin 1 segment encompassing CCD and ECD (UniProt Q14457); assay: co-IP of Flag-Beclin 1 variants with GFP-IRGM
NOD2 (full length) = NOD2 (full length) (UniProt Q9HC29); assay: Flag pull-down, affinity purified Flag-NOD2 variants and purified GST-IRGM
NLRP3 = NLRP3 (UniProt Q96P20); assay: co-IP of GFP-TRIM20 variants with NLRP3, HEK293 cells
Beclin 1 = Beclin 1 (UniProt Q14457); assay: co-IP of GFP-TRIM20 deletion variants with Flag-Beclin 1
ATG16L1 = ATG16L1 (UniProt Q676U5); assay: co-IP of TRIM20 deletion variants with Flag-ATG16L1

binding (p-ULK1 (Ser-317) [1]): binds
binding (ULK1 [2]): binds
binding (p-ULK1 (Ser-317) [3]): binds
binding (p-ULK1 (Ser-555)): binds
binding (ULK1 [4]): binds
binding (ULK1 [5]): binds
binding (ULK1 [6]): binds
B1: GFP-TRIM20 (full-length human TRIM20) (protein, not shown: large carriers)
chain: MAKTPSDHLLSTLEELVPYDFEKFKFKLQNTSVQKEHSRIPRSQIQRARPVKMATLLVTYYGEEYAVQLTLQVLRAINQRLLAEELHRAAIQEYSTQENGTDDSAASSSLGENKPRSLKTPDHPEGNEGNGPRPYGGGAASLRCSQPEAGRGLSRKPLSKRREKASEGLDAQGKPRTRSPALPGGRSPGPCRALEGGQAEVRLRRNASSAGRLQGLAGGAPGQKECRPFEVYLPSGKMRPRSLEVTISTGEKAPANPEILLTLEEKTAANLDSATEPRARPTPDGGASADLKEGPGNPEHSVTGRPPDTAASPRCHAQEGDPVDGTCVRDSCSFPEAVSGHPQASGSRSPGCPRCQDSHERKSPGSLSPQPLPQCKRHLKQVQLLFCEDHDEPICLICSLSQEHQGHRVRPIEEVALEHKKKIQKQLEHLKKLRKSGEEQRSYGEEKAVSFLKQTEALKQRVQRKLEQVYYFLEQQEHFFVASLEDVGQMVGQIRKAYDTRVSQDIALLDALIGELEAKECQSEWELLQDIGDILHRAKTVPVPEKWTTPQEIKQKIQLLHQKSEFVEKSTKYFSETLRSEMEMFNVPELIGAQAHAVNVILDAETAYPNLIFSDDLKSVRLGNKWERLPDGPQRFDSCIIVLGSPSFLSGRRYWEVEVGDKTAWILGACKTSISRKGNMTLSPENGYWVVIMMKENEYQASSVPPTRLLIKEPPKRVGIFVDYRVGSISFYNVTARSHIYTFASCSFSGPLQPIFSPGTRDGGKNTAPLTICPVGGQGPD

binding (ULK1 [7]): binds
B2: GFP-TRIM20 triple mutant (M680I+M694V+V726A) (protein, not shown: large carriers)
chain: B1 chain with M680I, M694V, V726A

binding (ULK1 [7]): binds
B3: GFP-TRIM20 M694V (protein, not shown: large carriers)
chain: B1 chain with M694V

binding (ULK1 [7]): binds
B4: GFP-TRIM20 double mutant (M680I+M694V) (protein, not shown: large carriers)
chain: B1 chain with M680I, M694V

binding (AMBRA1 [8]): binds
binding (AMBRA1 [9]): binds
binding [10]: binds
B5: IRGM (human IRGM, isoform d) (protein, UniProt A1A4Y4-4 1-202, looked up)
chain: MEAMNVEKASADGNLPEVISNIKETLKIVSRTPVNITMAGDSGNGMSTFISALRNTGHEGKASPPTELVKATQRCASYFSSHFSNVVLWDLPGTGSATTTLENYLMEMQFNRYDFIMVASAQFSMNHVMLAKTAEDMGKKFYIVWTKLDMDLSTGALPEVQLLQIRENVLENLQKERLACHEKYLKSTPENSTRPRNINLCS

binding (NOD2 (full length)): binds
B6: purified recombinant GST-IRGM (GST-IRGMd), prepared from insect cells (protein, human, UniProt A1A4Y4-4 1-202, looked up, not shown: a dimerising Fc or GST)
chain: B5 chain

binding (NLRP3): binds
binding (Beclin 1): binds
binding (ATG16L1): binds
B7: TRIM20 construct containing only the PRY/SPRY domain (protein, not shown: large carriers)
chain: SEMEMFNVPELIGAQAHAVNVILDAETAYPNLIFSDDLKSVRLGNKWERLPDGPQRFDSCIIVLGSPSFLSGRRYWEVEVGDKTAWILGACKTSISRKGNMTLSPENGYWVVIMMKENEYQASSVPPTRLLIKEPPKRVGIFVDYRVGSISFYNVTARSHIYTFASCSFSGPLQPIFSPGTRDGGKNTAPLTICPVGGQGPD
